Library screen at single concentrations

Chains of the proteins cited; added tags and fusions are not shown.
UniProt P9WFT3, whole entry: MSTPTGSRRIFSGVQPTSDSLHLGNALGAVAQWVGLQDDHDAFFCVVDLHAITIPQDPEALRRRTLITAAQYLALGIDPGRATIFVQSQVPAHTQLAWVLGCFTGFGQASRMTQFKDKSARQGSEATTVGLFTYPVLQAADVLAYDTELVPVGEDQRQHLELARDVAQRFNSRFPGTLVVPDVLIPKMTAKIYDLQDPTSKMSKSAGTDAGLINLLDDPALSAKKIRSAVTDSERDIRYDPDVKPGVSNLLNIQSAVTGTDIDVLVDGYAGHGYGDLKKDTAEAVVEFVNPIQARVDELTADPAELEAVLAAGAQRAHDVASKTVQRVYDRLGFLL
UniProt P9WNZ1, whole entry: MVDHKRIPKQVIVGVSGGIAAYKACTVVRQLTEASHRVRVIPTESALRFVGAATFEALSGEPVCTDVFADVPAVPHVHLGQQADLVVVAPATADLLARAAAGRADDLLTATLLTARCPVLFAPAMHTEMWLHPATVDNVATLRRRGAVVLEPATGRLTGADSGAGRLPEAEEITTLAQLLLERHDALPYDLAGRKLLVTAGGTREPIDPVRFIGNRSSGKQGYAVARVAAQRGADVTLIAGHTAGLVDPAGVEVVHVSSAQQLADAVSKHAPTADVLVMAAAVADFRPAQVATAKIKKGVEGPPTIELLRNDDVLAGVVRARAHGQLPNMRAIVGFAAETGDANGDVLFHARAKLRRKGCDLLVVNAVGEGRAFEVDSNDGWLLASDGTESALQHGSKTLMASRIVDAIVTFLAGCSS

From ChEMBL document CHEMBL3988442, “University of Dundee, Small-Polar-MMV Screening Library” (2021).

MtTrpRS: 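Enzyme assay of tryptophanyl-tRNA synthetase; the read-out is not stated. Target: Tryptophan-tRNA ligase, Mycobacterium tuberculosis (UniProt P9WFT3). Concentration: 10 µM. Direction is not recorded; retested compounds ran higher, which suggests that high means inhibition. Of about 65,000 compounds tested this way, about 64 (0.098%) reached 50% or more in at least one test.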
CoaBC: 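Coenzyme A biosynthesis protein CoaBC, Mycobacterium tuberculosis (UniProt P9WNZ1). Enzyme assay of CoaBC with a phosphate dye (Biomol Green) read at 650 nm. Tested at 30 µM. Direction is inferred from only a few compounds that gave an IC50; most scored high, so higher reads as stronger inhibition. Most strong results did not repeat in a second test. Size under these conditions: about 67,000 compounds, about 40 of them at 50% or above in at least one test.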

Values are the deposited “Percent Effect”, in %. The controls that fix the scale are not given in the record; negative values are as filed. This is an unselected part of the compounds tested. A dash means the value is not listed here; it may have been measured.

SMILES,MtTrpRS,CoaBC
CCOCC1c2c(ncn2C)CCN1C(=O)c1cnc(C)cn1 (stereo unspecified),-,6.807%
COc1ccc(CCN2CCCC(Cn3nc(C)nc3C)C2)cc1 (stereo unspecified),-1.852%,7.833%
CC(CNCc1ccc(Cl)cc1)Oc1ccccn1 (stereo unspecified),-5.672%,4.798%
CC(=O)c1cn(CC(=O)N2CCCC(O)(CO)C2)c2ccccc12 (stereo unspecified),1.868%,1.463%
O=C(NCC1(N2CCOCC2)CCSC1)Nc1ccncc1 (stereo unspecified),1.146%,4.487%
COC(=O)c1ccc(S(=O)(=O)NCC(C)(O)c2cccs2)cc1 (stereo unspecified),-5.832%,7.143%
O=C(Cc1ccc2c(c1)CCCC2)Nc1cccnc1N1CCSCC1,-6.745%,2.913%
Cc1noc(C)c1C(=O)NCC(C)N(C)C (stereo unspecified),-2.041%,-3.035%
CCCc1ccc(CN2CCC3(CCC(=O)N(C(C)C(=O)O)C3)CC2)o1 (stereo unspecified),-1.069%,5.251%
CCc1cc(N2CCC(N3CCSCC3)CC2)n2nccc2n1,-0.161%,1.082%
CCC(CNC(=O)COC)Oc1cccc(F)c1 (stereo unspecified),3.046%,-2.317%
COc1ccc(CCC(=O)N(C)Cc2c(C)nn(C)c2C)cc1,2.724%,1.722%
CSc1ccc(C2CC(=O)Nc3c2c(=O)[nH]n3C(C)C)cc1 (stereo unspecified),-0.618%,-3.831%
Cc1ccsc1C(=O)N1CCc2ncc(CN3CCCC3)n2CC1,-2.698%,-0.9852%
CS(=O)(=O)c1ccc(CNc2nccc(C(F)(F)F)n2)cc1,2.542%,-1.979%
Nc1cc(-c2c[nH]nc2C2CCCN2S(=O)(=O)c2ccccc2)ccn1 (stereo unspecified),-2.344%,0.4785%
CC(=O)N1CC(c2ncn(C(C)C)n2)c2cc(C(=O)NC(C)C)ccc21 (stereo unspecified),1.992%,1.474%
O[C@@H]1C[C@@H](c2nc(-c3ccccc3)no2)N(Cc2cccnc2)C1,-0.09292%,6.774%
Cc1cc(F)ccc1N1CCC(N2C[C@@H](CN(C)C)[C@@H](CO)C2)CC1,-2.51%,-58.25%
COc1nc2c(cc1C(=O)N1CCCCC1c1ccccn1)CCC2 (stereo unspecified),1.854%,4.087%
COc1ccc(C(C)NC(=O)Cn2ccc(=O)n(C)c2=O)cc1OC (stereo unspecified),-1.247%,-0.2635%
COc1cc2[nH]c(=O)c(CN3CCC[C@H]3CO)cc2c(OC)c1OC,19.65%,-0.4969%
COc1ccc(COCC(O)CNC(=O)c2ccc(C#N)cc2)cc1 (stereo unspecified),-5.879%,6.743%
O=C(NC1CCCCC1)c1c(F)cccc1F,-2.006%,3.187%
CCN1CCCC(C)(C(=O)NCc2nnnn2-c2ccccc2)C1 (stereo unspecified),6.461%,3.802%
O=C(Cc1ccsc1)N1CCC(c2noc(-c3ccncc3)n2)CC1,-3.304%,9.246%
Cc1cc(S(C)(=O)=O)c(C)c(S(=O)(=O)N2CCN(C)CC2)c1,-1.22%,1.392%
Cc1ccc(O[C@@H]2C[C@H]3CN(Cc4nccn4C)CCN3C2)cc1,-3.743%,0%
CC(C)(C)S(=O)(=O)CCNC(=O)NCCCc1cccc(F)c1,-3.909%,-3.62%
COCC(=O)N1CCN(C(=O)c2cccs2)C[C@H]1C(=O)OC,-3.238%,-4.289%
CCn1ccnc1CN1CCN(c2nccc(OC)n2)CC1C (stereo unspecified),3.659%,5.405%
Cc1sc(CN)nc1-c1ccccc1,0.3137%,10.19%
N#Cc1cnn(-c2ccc(C(=O)N(C3CCCCC3)C3CC3)cc2)c1N,4.94%,-4.826%
CN(C)C(=O)c1ccc2c(c1)N(C)C(CC(=O)NC(CO)CO)CO2 (stereo unspecified),3.786%,3.353%
COc1cccc(CN2CCN(C(=O)Nc3nc(C)ns3)CC2=O)c1,-0.972%,8.73%
COc1ccc(CN(C)C(=O)CCC(=O)c2cccs2)c(OC)c1OC,2.22%,2.796%
COCCN1CCN(CC(=O)N(C)Cc2ccsc2)CC1,-10%,-0.4831%
Cn1c(CN2CCCC2c2noc(C3CC3)n2)cc(=O)n(C)c1=O (stereo unspecified),0.2534%,-3.781%
Cc1c(C(=O)NC2=NCCS2)cnn1-c1ccc(Br)cc1,-2.644%,1.574%
CCNC(=O)NCCc1csc(N2CCCC2)n1,6.589%,4.545%
O=C(COCC1CC1)N1CCCC(n2cncn2)C1 (stereo unspecified),3.365%,4.389%
CC1(C)CNC(=O)c2nc(CCN3CCC(C(N)=O)CC3)[nH]c2C1,-0.1505%,5.854%
CC(=O)N1CCCN(C(=O)c2cnc3n[nH]c(C)c3c2)CC1,2.242%,-6.845%
c1cc(CN2CCCC2)ccc1CNc1cncc2nnnn12,-3.75%,4.826%
CCNc1ncc(CN2C[C@H](C3CC3)[C@@H](N)C2)cn1,-5.925%,1.613%
COc1ccc(N2CCCN(C(=O)Cc3csc(C)n3)CC2)cc1,3.298%,12%
Cc1nnc(C2CCN(C(=O)c3cnc4ccccc4n3)CC2)s1,-2.25%,1.235%
O=C(Cn1c(=O)nc2n1C(=O)N(c1ccccc1)C2)Nc1ccccc1,0.4177%,6.14%
O=C(O)C1CC2(CCN(c3nccc4ccccc34)CC2)CN1 (stereo unspecified),7.729%,7.576%
CS(=O)(=O)NCc1ncn2c1CN(C(=O)CC1CCCC1)CCC2,0.8629%,-0.9009%
Cc1cccc(CO[C@@H]2CC[C@H]3[C@H]2OCCN3Cc2cc(C)on2)n1,-0.4647%,-2.581%
CC(=O)NC1(C(=O)N2CCCN(c3cccnn3)CC2)CCCCC1,-2.388%,5.976%
Cn1ncnc1-c1ccnc(NCc2ccncc2)n1,-3.21%,1.225%
c1cncc(-c2noc(CNC3CCCN(c4cccnn4)C3)n2)c1 (stereo unspecified),0.5727%,4.019%
CCN(Cc1cc(-c2ccccn2)no1)C1CCS(=O)(=O)C1 (stereo unspecified),-0.1715%,0.8403%
COCCN1CCC2(CCCN(C(=O)c3cncn3C)C2)CC1,0.6783%,-
Cc1cc(F)ccc1-c1cc(NCCO)nc2[nH]ccc12,6.498%,2.254%
CC(C)c1cc(C(=O)NCC2CCCN(C(C)C)C2)n(C)n1 (stereo unspecified),-0.2342%,7.692%
OC1(CNc2ccccc2)CCNCC1,-6.29%,2.992%
COCCNC(=O)[C@@]12CCO[C@@H]1CCN(Cc1cc(C)on1)C2,-0.6875%,5.071%
CCc1cc(C(=O)N2CCC3(CCCN(CCOC)C3=O)C2)cs1 (stereo unspecified),-9.513%,6.318%
Cc1cnn(CC2CCCN2C(=O)c2ccc(-n3cccn3)nc2)c1 (stereo unspecified),-2.273%,1.053%
CCc1nc2n(n1)CCCC2NC(=O)Nc1cc(OC)ccc1C (stereo unspecified),1.09%,10.48%
O=S1(=O)CCN2C(=N1)Oc1ccc(Cl)cc12,1.977%,-4.051%
CC(C)(C)OC(=O)NCCNC(=O)c1cnc(-c2ccccc2)nc1,-0.7916%,-3.004%
CN(Cc1noc2c1CCCC2)C(=O)CN1C(=O)CSc2ccccc21,1.342%,6.4%
Cc1cnn(-c2ccc(S(=O)(=O)N(C)CC(F)F)cc2F)c1,-3.641%,5.579%

Once more, the final 6:

* Cc1cnn(CC2CCCN2C(=O)c2ccc(-n3cccn3)nc2)c1 (stereo unspecified) : MtTrpRS: -2.273%; CoaBC: 1.053%
* CCc1nc2n(n1)CCCC2NC(=O)Nc1cc(OC)ccc1C (stereo unspecified) : MtTrpRS: 1.09%; CoaBC: 10.48%
* O=S1(=O)CCN2C(=N1)Oc1ccc(Cl)cc12 : MtTrpRS: 1.977%; CoaBC: -4.051%
* CC(C)(C)OC(=O)NCCNC(=O)c1cnc(-c2ccccc2)nc1 : MtTrpRS: -0.7916%; CoaBC: -3.004%
* CN(Cc1noc2c1CCCC2)C(=O)CN1C(=O)CSc2ccccc21 : MtTrpRS: 1.342%; CoaBC: 6.4%
* Cc1cnn(-c2ccc(S(=O)(=O)N(C)CC(F)F)cc2F)c1 : MtTrpRS: -3.641%; CoaBC: 5.579%